This assay has as its target T1, Splicing factor proline- and glutamine-rich (SFPQ) (human (endogenous in HEK293T)) (UniProt P23246).
T1 sequence: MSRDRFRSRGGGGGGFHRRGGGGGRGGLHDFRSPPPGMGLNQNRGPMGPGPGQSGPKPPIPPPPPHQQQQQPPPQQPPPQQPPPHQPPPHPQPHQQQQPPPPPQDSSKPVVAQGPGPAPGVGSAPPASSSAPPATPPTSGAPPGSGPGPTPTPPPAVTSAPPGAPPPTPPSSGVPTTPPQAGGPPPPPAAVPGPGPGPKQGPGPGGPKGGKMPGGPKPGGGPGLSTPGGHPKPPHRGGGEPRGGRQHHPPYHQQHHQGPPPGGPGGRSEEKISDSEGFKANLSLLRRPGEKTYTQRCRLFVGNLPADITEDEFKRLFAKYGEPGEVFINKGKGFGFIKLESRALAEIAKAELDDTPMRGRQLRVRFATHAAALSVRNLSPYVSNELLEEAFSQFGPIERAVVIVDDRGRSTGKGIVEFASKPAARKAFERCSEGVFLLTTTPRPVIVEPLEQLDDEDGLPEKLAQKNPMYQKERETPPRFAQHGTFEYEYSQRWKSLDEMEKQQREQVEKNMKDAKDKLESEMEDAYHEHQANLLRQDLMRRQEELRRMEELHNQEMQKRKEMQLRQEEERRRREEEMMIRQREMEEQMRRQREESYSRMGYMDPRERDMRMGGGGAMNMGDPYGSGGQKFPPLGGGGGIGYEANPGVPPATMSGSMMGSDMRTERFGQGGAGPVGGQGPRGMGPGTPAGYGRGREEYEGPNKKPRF
Put plainly: co-IP; co-IP in HEK293T cells; also after coculture with exosomes from circMAN1A2-overexpressing HGC27 cells (binding decreased) or sh-circMAN1A2 HGC27 cells (binding increased).

The chains behind the UniProt entries cited, without tags or fusion partners.
UniProt Q9UKB1: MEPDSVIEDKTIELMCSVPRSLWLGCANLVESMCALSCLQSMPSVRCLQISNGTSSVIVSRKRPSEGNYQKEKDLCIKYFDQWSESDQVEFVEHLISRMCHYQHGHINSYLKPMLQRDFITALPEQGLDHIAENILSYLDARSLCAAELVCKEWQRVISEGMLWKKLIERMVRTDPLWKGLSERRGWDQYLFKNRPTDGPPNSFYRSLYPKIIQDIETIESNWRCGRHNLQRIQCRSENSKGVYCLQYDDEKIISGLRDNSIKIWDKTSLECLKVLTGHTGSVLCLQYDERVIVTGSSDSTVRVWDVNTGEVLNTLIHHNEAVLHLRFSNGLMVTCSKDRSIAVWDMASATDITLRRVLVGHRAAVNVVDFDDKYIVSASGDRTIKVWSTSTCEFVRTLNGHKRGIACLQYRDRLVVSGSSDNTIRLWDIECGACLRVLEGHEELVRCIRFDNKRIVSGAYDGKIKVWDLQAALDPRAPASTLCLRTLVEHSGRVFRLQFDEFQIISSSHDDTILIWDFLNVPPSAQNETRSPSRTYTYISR

Results are given in words; binding and its absence hold for the method and conditions named. In cells and extracts the contact can be indirect. Some results given as binding are weak or reduced against the parent protein; the word gives no strength.

With “F-box and WD repeat domain containing 11 (FBXW11) (from UniProt Q9UKB1 1-542)”, the binding result is recorded as “binds”.

For the origin of these results see publication PMC11762487.
